Measured values as given in PubChem BioAssay AID1487 (National Center for Advancing Translational Sciences (NCATS), 2009).
The campaign covered roughly 200,000 compounds. About 25 (0.01%) were called active. The shares of active, inactive and inconclusive entries below differ from those in the screen. The call rests on the fitted dose curve; in most records, active means well fitted inhibition curve with a large enough effect in the signal ratio, with a control signal flat (not every such curve was filed as active); inconclusive means small, poorly fitted or top-dose-only effect, or effect the other way, or a change in a side signal; inactive means flat fitted curve, though single readings scatter; the % refers to the signal ratio. A potency beside an inconclusive call is a rough fit, not a confirmed value.

Assay: qHTS Assay for Modulators of Lamin A Splicing
Settings: HeLa LMNA splicing GFP/RFP minigene ratio, 48 h; ratio change, negative = inhibition: at 46.1 µM (top of the series) unless noted
How it was run: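 S3 HeLa cells stably expressing lamin A-EGFP splicing minigene plus DsRed2, 600 cells/well, 48 h compound exposure at 37C. Laser-scanning cytometry; analysed as GFP (500-530 nm)/RFP (575-640 nm) total intensity ratio; 0.5% DMSO vehicle.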
On the % scale 0 is the no-effect control and ±100 the full control effect; potency means the concentration at half of the fitted maximal effect.

Row | Compound | ratio change, negative = inhibition | Potency
1 | O=C(O)CCC(=O)N1CCCC1C(=O)O (configuration not stated) | inconclusive: -8.06% | –
2 | COc1ccc2c(C)cc(SCc3c(C)noc3C)nc2c1 | inconclusive: -3.88% | –
3 | Cc1ccc(NC2(c3nnnn3-c3c(C)cccc3C)CCCCC2)cc1 | – | inconclusive: 35.5 µM [falling, single point]
4 | O=C(O)CCc1ccc(-c2ccc(Br)cc2)o1 | inactive: 3.73% | –
5 | COc1ccc(-c2n[nH]c(=S)n2-c2ccc3c(c2)OCCO3)cc1 | inactive: 15.8% | –
6 | COc1cc(-c2cc(C(=O)Nc3c(Cl)cc(Cl)cc3Cl)c3ccccc3n2)cc(OC)c1OC | inconclusive: -6.88% | –
7 | Cc1nnc(C)n1N | inactive: 3.64% [at 46 µM] | –
8 | CCOC(=O)C1(CC2CC2)CCN(Cc2cnc(-c3ccccc3C)nc2)CC1 | inconclusive: -18.1% [at 46 µM] | –
9 | COc1cccc(Cn2c(=O)c(C)nc3cnc(N4CCN(C)CC4)nc32)c1 | inconclusive: -12% | –
10 | O=C(/C=C/c1ccccc1Cl)c1cccnc1 | – | inconclusive: 35.5 µM [cytotoxic, single point]
11 | O=C(Nc1cccc(Cl)c1Cl)c1cc(S(=O)(=O)N2CCC3(CC2)OCCO3)ccc1F | inconclusive: -39.5% [at 46 µM] | –
12 | Cc1ccc(C(=O)c2nocc2C(=O)c2cccs2)cc1 | inactive: 3.99% | –
13 | CCOc1cc(C)c(C(C)C)cc1S(=O)(=O)N1CCOCC1 | inactive: -10.2% | –
14 | CC(O)COc1ccc(/C(=N/O)c2ccccc2)cc1 (configuration not stated) | inconclusive: 6.9% | –
15 | O=C(CN1CCOCC1)Nc1ccc(N2CCN(c3ccccc3)CC2)c(F)c1 | inconclusive: -8.63% [at 46 µM] | –
16 | Cn1cc(CCNC(=O)CC2C(=O)NCCN2Cc2cccc(Oc3ccccc3)c2)cn1 (configuration not stated) | inconclusive: -1.29% [at 46 µM] | –
17 | Cn1c(=S)n(C)c2ccccc21 | inconclusive: 5.73% [at 46 µM] | –
18 | COc1cccc(C(C(=O)NCc2ccco2)N(C(=O)Cn2nnc3ccccc32)C2CC2)c1OC (configuration not stated) | inactive: -1.04% | –
19 | CNC(=O)c1ccsc1NC(=O)c1ccc(S(=O)(=O)N2CCc3ccccc32)cc1 | – | inconclusive: 35.5 µM [fluorescent, single point]
20 | CCOc1ccc(C(=O)NCCc2csc(-c3ccc(C(F)(F)F)cc3)n2)cc1OCC | inactive: -2.78% [at 46 µM] | –
21 | COc1ccc(CCNC(=O)COC(=O)c2cnc(C)cn2)cc1OC | inactive: 5.79% | –
22 | CN(C)c1ccc(/C=C/C(=O)c2cccc(Br)c2)cc1 | – | inconclusive: 35.5 µM [cytotoxic, partial curve]

Entries from the list above that have bromine:
Row | Compound | ratio change, negative = inhibition | Potency
4 | O=C(O)CCc1ccc(-c2ccc(Br)cc2)o1 | inactive: 3.73% | –
22 | CN(C)c1ccc(/C=C/C(=O)c2cccc(Br)c2)cc1 | – | inconclusive: 35.5 µM [cytotoxic, partial curve]

(further entries)

Row | Compound | ratio change, negative = inhibition | Potency
23 | COc1coc(C(O)C[N+](=O)[O-])cc1=O (configuration not stated) | inconclusive: 3.36% | –
24 | CCOC(=O)c1c(NC(=O)CCN2C(=O)c3cccc([N+](=O)[O-])c3C2=O)sc(C(=O)OC(C)C)c1C | inconclusive: 1.8% | –
25 | CC1(C)CC(=O)C(C=NCCN2CCN(C3CC(=O)N(c4ccc(Br)cc4)C3=O)CC2)=C(O)C1 (configuration not stated) | inactive: 19.9% [at 46 µM] | –
26 | Cc1ccccc1-c1cc(N(C)C)ncn1 | inactive: 3.9% | –
27 | Cn1cnnc1SCC(=O)Nc1cc(C(=O)O)cc(C(=O)O)c1 | inconclusive: 10.6% [at 46 µM] | –
28 | O=C(NCCCN1CCCC1)c1cc2c(Cl)nc3ccccc3c2s1 | – | inconclusive: 11.2 µM [inhibitor, single point]
29 | Nc1ccc(-c2nc3ccc(-c4nc5ccc(N)cc5[nH]4)cc3[nH]2)cc1 | inconclusive: -49.6% | –
30 | C=CCSc1nc(N)c(C#N)c(-c2ccccc2)c1C#N | inconclusive: 19.8% | –
31 | NC(=O)CCn1ccc2ccccc21 | – | inconclusive: 1.41 µM [activator, partial curve, poor fit]
32 | CCOc1ccc(C(=O)NCC(c2cccs2)N(C)C)cc1 (configuration not stated) | inconclusive: 3.27% | –
33 | Cn1ccc(NC(=O)Nc2cccc(C(F)(F)F)c2)n1 | inconclusive: 22.6% [at 46 µM] | –
34 | Brc1cc2c(cc1/C=N/Nc1nc3ccccc3s1)OCO2 | – | inconclusive: 35.5 µM [cytotoxic, single point]
35 | CCOc1ccc(C(=O)Nc2nnc(SCc3cc(=O)c4cc(C)ccc4[nH]3)s2)cc1 | inconclusive: 0.627% [at 46 µM] | –
36 | S=c1[nH]nc(-c2ccco2)n1/N=C/c1ccc(Br)s1 | inconclusive: 33.8% | –
37 | O=C(NNC(=S)NC(=O)c1ccccc1[N+](=O)[O-])c1ccc(Cl)cc1Cl | inconclusive: -30.7% [at 46 µM] | –
38 | COc1cc(CN(C(=O)c2ccccc2[N+](=O)[O-])c2ccccn2)cc(OC)c1OC | inactive: 1.05% [at 46 µM] | –
39 | CCn1cc(CNC(=O)c2cc(-c3ccccc3OC)nc3ccccc23)c(C)n1 | inconclusive: -4.91% | –
40 | Cc1oc(-c2ccccc2)cc1C(=O)Nc1ccc2ccccc2c1 | inactive: 14.7% | –
41 | CC(C)c1ccc(NC(=O)CSC2=Nc3ccccc3C3=NC(CC(=O)NCc4ccc(F)cc4)C(=O)N23)cc1 (configuration not stated) | inactive: -20.7% [at 46 µM] | –
42 | CCN(CC)CC(=O)N1c2ccccc2Sc2ccc(Cl)cc21 | inactive: -8.51% | –
43 | O=C(CN1CCC(O)(c2ccc3c(c2)OCO3)CC1)OC1CCCCC1 | inactive: 10.1% | –
44 | C[C@]12CCC3c4ccc(OC(=O)c5ccccc5)cc4CCC3C1CCC2=O (some centres not stated) | inconclusive: 20.2% | –

Single entries from the results shown:
For Potency, CNC(=O)c1ccsc1NC(=O)c1ccc(S(=O)(=O)N2CCc3ccccc32)cc1 is entered as inconclusive: 35.5 µM [fluorescent, single point]
For ratio change, negative = inhibition, CCN(CC)CC(=O)N1c2ccccc2Sc2ccc(Cl)cc21 is entered as inactive: -8.51%
For ratio change, negative = inhibition, COc1ccc(CCNC(=O)COC(=O)c2cnc(C)cn2)cc1OC is entered as inactive: 5.79%

(continued)

Row | Compound | ratio change, negative = inhibition | Potency
45 | CCOC(=O)C1(CC2CC2)CCN(C(=O)c2ocnc2C)CC1 | inactive: -0.646% [at 46 µM] | –
46 | CCC1CCCCN1Cc1nc2c(c(=O)n(C)c(=O)n2C)n1CCC(C)C (configuration not stated) | inactive: 0.7% | –
47 | CCNc1ncc2nc(C)c(=O)n(Cc3cccs3)c2n1 | inconclusive: -22.5% | –
48 | CC1(C)CC(=O)C2=C(C1)N=C1SCCC(=O)N1C2c1ccccc1 (configuration not stated) | inconclusive: 5.57% | –
49 | Cc1cc(C(=O)CSc2nc3ccc(Cl)cc3[nH]2)c(C)n1C | inconclusive: 9.51% | –
50 | O=C(N=Nc1c(O)[nH]c2ccccc12)c1ccc(CN2CCOCC2)cc1 | inactive: 19.5% [at 46 µM] | –
51 | O=C(CSc1cccc[n+]1[O-])c1ccc(-c2ccccc2)cc1 | – | inconclusive: 35.5 µM [falling, single point]
52 | CCn1cnc2cc(NCc3cccs3)ccc21 | inconclusive: -16.7% [at 46 µM] | –
53 | CC(=O)NO | inconclusive: -21.1% | –
54 | COc1cc(O)c2c(=O)c(O)c(-c3ccc(O)c(O)c3)oc2c1 | – | inconclusive: 11.2 µM [activator, partial curve]
55 | Cc1ccc(S(=O)(=O)N(C(=O)c2ccncc2)c2ccc(OC(=O)c3ccncc3)c3ccccc23)c(C)c1 | inactive: 3.25% | –
56 | Cn1cc(S(=O)(=O)N2CCCCCC2)cc1C(=O)NCc1ccccc1Cl | inactive: 21% [at 46 µM] | –
57 | CN(C)c1ccnc2sc3c(=O)n(Cc4ccccc4)cnc3c12 | inconclusive: 13% [at 0.0737 µM] | –
58 | COC(=O)c1sccc1NC(=S)N1CCN(c2ccc(F)cc2)CC1 | inconclusive: -46.3% | –
59 | COc1ccc(-c2c(O)c3c(OC)c4c(cc3oc2=O)OC(C)(C)C=C4)cc1 | inactive: -7.18% | –
60 | COc1ccc(N2CSC3=C(C#N)C(c4cc(OC)ccc4OC)CC(=O)N3C2)c(OC)c1 (configuration not stated) | inactive: -5.3% | –
61 | CCOC(=O)c1c(C)oc2c1c1c(c3ccccc32)OCN(Cc2cccnc2)C1 | inconclusive: 32.3% | –
62 | COc1ccccc1C(=O)Nc1nnc(SCC(=O)Nc2ccc3c(c2)oc2ccccc23)s1 | inconclusive: 33.2% | –
63 | O=C(Cn1ccc(C(F)(F)F)n1)Nc1ccc(S(=O)(=O)NCc2ccco2)cc1 | inconclusive: 12.3% | –
64 | COC(=O)C(CCCCNC(=O)OCc1ccccc1)NC(=O)CN (configuration not stated) | inactive: 0.398% | –
65 | O=C(c1ccccc1)c1cc(Cl)ccc1N1C(=O)C=CC1=O | inconclusive: -2.75% [at 46 µM] | –
66 | CC(C)(C)N(NC(=O)OCc1ccccc1)C(=O)c1ccccc1 | inconclusive: -2.33% | –

Row | Compound | ratio change, negative = inhibition | Potency
67 | Cc1cc(C)cc(COn2ccnc2)c1 | inactive: 7.66% | –
68 | O=C(COc1cccc(Br)c1)NN=C1c2ccccc2-c2ccccc21 | inactive: -1.32% | –
69 | COc1ccc(CC(=O)NCc2ccc3c(c2)CCN3C(=O)c2ccc(Cl)cc2)cc1OC | inconclusive: -8.37% [at 46 µM] | –
70 | COc1cccc(CNCC(O)(c2ccc(Cl)cc2)c2ccc(Cl)cc2)c1 | – | inconclusive: 35.5 µM [cytotoxic, single point]
71 | Cc1ccc(S(=O)(=O)N2CCOCC2)cc1NC(=O)CN1CCN(c2ccc(O)cc2)CC1 | inactive: 2.72% | –
72 | Cc1ccc(OCCN2C(=O)C(=O)c3cccc(C)c32)cc1 | inconclusive: -16.6% [at 46 µM] | –
73 | COC(=O)NNC(=O)c1ccc(Cl)cc1Cl | inconclusive: 17.5% | –
74 | CC1c2ccccc2SC(CCCN(C)C)c2ccccc21 (configuration not stated) | inconclusive: -17.7% | –
75 | CC1CCN(C(=O)c2cc3ccccc3o2)CC1 | inactive: 17.3% | –
76 | O=C(CSCc1ccc(Cl)cc1)NN=C1CCCC1 | inactive: 2.72% | –
77 | CC(C)(Oc1ccc(Cl)cc1)C(=O)O | inconclusive: 7.9% | –
78 | CCOc1ccccc1N(CC(=O)N1CCOCC1)S(=O)(=O)c1ccc(SC)cc1 | inactive: 9.08% | –
79 | O=C(O)c1cc(-c2ccc(/C=C3\NC(=O)N(c4ccc(Cl)cc4)C3=O)o2)ccc1Cl | inactive: 7.06% [at 46 µM] | –
80 | COC(=O)c1ccc(NC(=O)CSc2ccccn2)cc1 | inactive: -2.31% | –
81 | CC1(C)CC(=O)C(C(c2ccc(F)cc2)C2C(=O)CC(C)(C)CC2=O)C(=O)C1 | inactive: 5.12% | –
82 | Cc1c(C(=O)NCCSCc2ccccc2)cccc1[N+](=O)[O-] | inactive: 13.1% [at 46 µM] | –
83 | Cc1ccc(C(=O)Nc2nc(C)c(C(=O)Nc3ccc4c(c3)CCC4)s2)cc1 | inconclusive: -12.9% | –
84 | COc1cc(OC)cc(C(=O)NCCN2C(=O)S/C(=C\c3cccs3)C2=O)c1 | inconclusive: -20.7% [at 46 µM] | –
85 | COc1ccc(C(=O)NC(=S)N2CCN(c3ccc([N+](=O)[O-])cc3)CC2)cc1 | – | inconclusive: 35.5 µM [fluorescent, single point]
86 | COc1cccc(-c2ccc3ncnc(NCc4ccc(OC)cc4OC)c3c2)c1 | inconclusive: -20.8% | –
87 | Cc1ccc(C(=O)NNC(=S)NC(=O)COc2ccccc2)cc1 | inactive: 0.232% | –
